Assay results as given in paper PMC6879747.
Results are given in words; binding and its absence hold for the method and conditions named. In cells and extracts the contact can be indirect. Some results given as binding are weak or reduced against the parent protein; the word gives no strength.

Protein sequences, listed by entry. Tags and fused reporters are not part of them.
UniProt Q9DCD6: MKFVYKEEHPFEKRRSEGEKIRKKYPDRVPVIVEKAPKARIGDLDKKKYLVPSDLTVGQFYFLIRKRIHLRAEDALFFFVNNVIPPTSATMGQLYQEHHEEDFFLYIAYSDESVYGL

Target: T1, Protrudin (mouse (endogenous in hippocampus of C57/BL6 mice)) (UniProt Q3TXX3)
T1 sequence: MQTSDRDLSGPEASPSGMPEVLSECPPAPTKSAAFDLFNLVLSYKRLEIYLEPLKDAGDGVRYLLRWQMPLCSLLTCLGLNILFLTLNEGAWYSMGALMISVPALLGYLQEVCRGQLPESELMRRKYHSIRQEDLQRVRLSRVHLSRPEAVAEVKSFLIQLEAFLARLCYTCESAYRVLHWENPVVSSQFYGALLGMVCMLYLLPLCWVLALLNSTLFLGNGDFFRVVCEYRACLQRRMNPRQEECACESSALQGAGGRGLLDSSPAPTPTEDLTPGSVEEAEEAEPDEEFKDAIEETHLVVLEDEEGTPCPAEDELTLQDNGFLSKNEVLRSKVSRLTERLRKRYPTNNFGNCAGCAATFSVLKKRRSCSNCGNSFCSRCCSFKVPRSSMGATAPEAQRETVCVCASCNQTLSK
Assay: co-IP; extracts of hippocampal tissue from PTZ-induced epileptic mice; anti-protrudin, anti-GABAARβ2/3, anti-GABARAP or control IgG at 4°C for 12 h, then protein A/G agarose beads at 4°C overnight; immunoblot; quantitative co-IP also done in mice injected with LV-GFP or LV-protrudin

binding: binds
Substance: GABA receptor-associated protein (from UniProt Q9DCD6 1-117)
